Results are given in words; binding and its absence hold for the method and conditions named. Some entries that bind do so weakly or less than the wild type.
What was measured:
[1] = target: biotinylated human PD-L1 (extracellular domain) (human) (UniProt Q9NZQ7); experiment: Octet BLI, bivalent
[2] = target: biotinylated human PD-L1 (extracellular domain) (human) (UniProt Q9NZQ7); experiment: Octet BLI, bivalent; biotinylated PD-L1 on streptavidin sensor
[3] = target: human PD-L1-His tag (extracellular domain) (human) (UniProt Q9NZQ7); experiment: Octet BLI, monovalent
[4] = target: PD-L1 on PD-L1 overexpressing CHO-K1 cells (Homo sapiens (Human)) (UniProt Q9NZQ7); experiment: flow cytometry on PD-L1 CHO-K1 cells
[5] = target: human PD-L1-His tag (extracellular domain) (human) (UniProt Q9NZQ7); experiment: bio-layer interferometry (Octet); the text calls FIGS. 1A-1C monovalent binding (IgG on an Fc capture sensor, soluble PD-L1-His); concentration not given; format doubtful
[6] = target: PD-L1 on PD-L1 overexpressing CHO-K1 cells (Homo sapiens (Human)) (UniProt Q9NZQ7); experiment: flow cytometry on PD-L1 overexpressing CHO-K1 cells, AF488 goat anti human IgG Fab secondary, MFI

By UniProt entry, the sequences of proteins in these tests, tags left out. Where a name states a change or a piece, a line headed by the entry shows the natural chain unless it says otherwise.
UniProt Q9NZQ7: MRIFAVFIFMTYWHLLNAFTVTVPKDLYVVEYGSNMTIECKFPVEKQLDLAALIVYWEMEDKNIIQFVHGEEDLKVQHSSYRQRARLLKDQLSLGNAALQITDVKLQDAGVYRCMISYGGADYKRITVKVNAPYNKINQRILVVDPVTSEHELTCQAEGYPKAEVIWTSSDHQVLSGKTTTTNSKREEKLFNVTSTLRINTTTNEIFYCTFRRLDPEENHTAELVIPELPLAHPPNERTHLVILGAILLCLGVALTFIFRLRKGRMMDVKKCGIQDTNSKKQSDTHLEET

Measured: binding

B1: antibody designated P22 (antibody, human IgG1, kappa, V domains shown)
VH: EVQLVESGGGLVQPGGSLRLSCAASGFTFSSYYIHWVRQAPGKGLEWVAWITSHGYSTKYADSVKGRFTISADTSKNTAYLQMNSLRAEDTAVYYCARDSVIYGLDYWGQGTLVTAST
VL: DIQMTQSPSSLSASVGDRVTITCRASQSVSSAVAWYQQKPGKAPKLLIYSASSLYSGVPSRFSGSRSGTDFTLTISSLQPEDFATYYCQQYYTSPYTFGQGTKVEIKR
notes: Tested as full length IgG
not listed: [6]
binds: all other assays above

B2: antibody designated P24 (antibody, human IgG1, kappa, V domains shown)
VH: EVQLVESGGGLVQPGGSLRLSCAASGFTFDQYYIHWVRQAPGKGLEWVAEIYPAGSYTYYADSVKGRFTISADTSKNTAYLQMNSLRAEDTAVYYCARGPYSVRYALDYWGQGTLVTAST
VL: DIQMTQSPSSLSASVGDRVTITCRASQSVSSAVAWYQQKPGKAPKLLIYSASSLYSGVPSRFSGSRSGTDFTLTISSLQPEDFATYYCQQVSYSPYTFGQGTKVEIKR
notes: Tested as full length IgG
not listed: [5]
binds: all other assays above

B3: antibody designated P31.2 (antibody, human IgG1, kappa, V domains shown)
VH: EVQLVESGGGLVQPGGSLRLSCAASGFTFSSYYIHWVRQAPGKGLEWVATISSGGGFTYYADSVKGRFTISADTSKNTAYLQMNSLRAEDTAVYYCARGYTLTPVLDYWGQGTLVTAST
VL: DIQMTQSPSSLSASVGDRVTITCRASQSVSSAVAWYQQKPGKAPKLLIYSASSLYSGVPSRFSGSRSGTDFTLTISSLQPEDFATYYCQQFGAEPITFGQGTKVEIKR
notes: Tested as full length IgG
binds: [1] | [2] | [3] | [4]
